Here are results for 48 sequences from the supplement of paper PMC7877785.

± gives the uncertainty stated by the source. Many entries were measured with a wide error.

The nature of this series: self-splicing fitness, log relative to wild type (ln ratio); higher = more splicing; Tetrahymena group I intron in knt gene, E. coli kanamycin selection, DiMSum; sequences stand for … in CUCUCU…GGAGGGAAAAGUUAUCAGGCAUGCACCUGGUAGCUAGUCUUUAAACCAAUAGAUUGCAUCGGUUUAAAAGGCAAGACCGUCAAAUUGCGGGAAAGGGGUCAACAGCCGUUCAGUACCAAGUCUCAGGGGAAACUUUGAGAUGGCCUUGCAAAGGGUAUGGUAAUAAGCUGACGGACAUGGUCCUAACCACGCAGCCAAGUCCUAAGUCAACAGAUCUUCUGUUGAUAUGGAUGCAGUUCACAGACUAAAUGUCGGUCGGGGAAGAUGUAUUCUUCUCAUAAGAUAUAGUCGGACCUCUCCUUAAUGGGAGCUAGCGGAUGAAGUGAUGCAACACUGGAGCCGCUGGGAACUAAUUUGUAUGCGAAAGUAUAUUGAUUAGUUUUGGAGUACUCGUGGUCG
An outline of the steps:
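Library with all eight P1ex-region intron nucleotides randomised, intron inside the knt kanamycin-resistance gene on pET-22b(+), in E. coli BL21(DE3). Cells grew overnight at 37°C or 30°C on LB agar with or without 25 μg/mL kanamycin (plus 100 μg/mL carbenicillin, 50 μM IPTG, 0.2% rhamnose), in six replicate transformations. Pooled colonies were amplicon-sequenced on Illumina HiSeq 2500. DiMSum fitness is the error-weighted combination of wild-type-normalised replicate fold changes, kanamycin versus none.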

Take UCGUAGCAAUAUUACGAGGC: the “self-splicing fitness (ln)” value (37 °C) is -2.67 ± 1.1.
With GUUGAGCAAUAUUACGGCCA, the “self-splicing fitness (ln)” value (30 °C) was -3.87 ± 0.73.
With UAUAAGCAAUAUUACGCUGC, the “self-splicing fitness (ln)” value (37 °C) is -3.08 ± 0.52.
Consider CAAAAGCAAUAUUACGGUUC, for which the “self-splicing fitness (ln)” value was -3.56 ± 0.22 (30 °C) and -1.83 ± 0.18 (37 °C).
Consider CGUAAGCAAUAUUACGCUAC, for which, for the setting “30 °C”, the “self-splicing fitness (ln)” value is -3.48 ± 0.79.
As for UGAGAGCAAUAUUACGGAGU, where the note is “37 °C”, the “self-splicing fitness (ln)” value is -3.1 ± 0.53.
As to GAUGAGCAAUAUUACGGCCG, the “self-splicing fitness (ln)” value (37 °C) is -1.1 ± 0.72.
Regarding AUCGAGCAAUAUUACGGUAC, the “self-splicing fitness (ln)” value (30 °C) is -4.49 ± 1.
As to UUGGAGCAAUAUUACGCUAC, the “self-splicing fitness (ln)” value is -4.22 ± 0.73 (30 °C) and -3.64 ± 0.59 (37 °C).
For the sequence AAGGAGCAAUAUUACGAAAG, where the note is “37 °C”, the “self-splicing fitness (ln)” value was -3.21 ± 0.6.
With UCUAAGCAAUAUUACGGAUU, the “self-splicing fitness (ln)” value (30 °C) was -4.06 ± 0.51.
For ACGGAGCAAUAUUACGCCGG, the “self-splicing fitness (ln)” value (37 °C) was -1.97 ± 0.5.
Turning to CGAGAGCAAUAUUACGCAGG, the “self-splicing fitness (ln)” value (30 °C) is -4.08 ± 0.52.
Regarding CGGGAGCAAUAUUACGUAAU, the “self-splicing fitness (ln)” value (30 °C) was -4.85 ± 0.52.
Consider ACCGAGCAAUAUUACGUCCA, for which the “self-splicing fitness (ln)” value (30 °C) was -3.34 ± 0.74.
As for CAUGAGCAAUAUUACGCCCU, where the note is “30 °C”, the “self-splicing fitness (ln)” value is -2.76 ± 0.54.
Consider UUGUAGCAAUAUUACGAUGA, for which the “self-splicing fitness (ln)” value by setting is: (30 °C) -0.47 ± 0.13; (37 °C) 0.0216 ± 0.12.
On the same counts, the results for CAUCAGCAAUAUUACGACCC are -2.63 ± 0.56 and -0.684 ± 0.61.
The corresponding values for GCAAAGCAAUAUUACGACGU are 0.0721 ± 0.072 and 0.116 ± 0.096.
Turning to UGGAAGCAAUAUUACGGUAU, where the note is “37 °C”, the “self-splicing fitness (ln)” value was -2.8 ± 0.75.
Regarding UUUUAGCAAUAUUACGACCC, the “self-splicing fitness (ln)” value (37 °C) is -0.432 ± 0.84.
In the case of UAAGAGCAAUAUUACGCCAA, the “self-splicing fitness (ln)” value by setting is: (30 °C) -1.61 ± 0.76; (37 °C) -2.04 ± 0.65.
For the sequence UUAAAGCAAUAUUACGCAGC, the “self-splicing fitness (ln)” value (30 °C) is -4.3 ± 0.59.
The same measure, in the same setting: as for CAGUAGCAAUAUUACGCGAC, the figure is -4.08 ± 0.73; as for UCUUAGCAAUAUUACGAGUC, -3.76 ± 1.
Consider CGAUAGCAAUAUUACGCUGC, for which the “self-splicing fitness (ln)” value (30 °C) is -3.15 ± 0.36 and the “self-splicing fitness (ln)” value (37 °C) is -2.21 ± 0.5.
As for GUUGAGCAAUAUUACGUCAA, where the note is “37 °C”, the “self-splicing fitness (ln)” value is -3.59 ± 0.52.
CAAGAGCAAUAUUACGAGAU: the “self-splicing fitness (ln)” value was -3.29 ± 0.29 (30 °C) and -2.8 ± 0.28 (37 °C).
On to ACGGAGCAAUAUUACGUGGC, for which the “self-splicing fitness (ln)” value (37 °C) was -4.12 ± 0.59.
With CUCCAGCAAUAUUACGGCCC, the “self-splicing fitness (ln)” value is, setting by setting: (30 °C) -3.72 ± 1; (37 °C) -2.34 ± 0.54.
On to CACGAGCAAUAUUACGUACC, for which the “self-splicing fitness (ln)” value (37 °C) is -2.35 ± 0.57.
In the case of CAGUAGCAAUAUUACGCCGC, the “self-splicing fitness (ln)” value (37 °C) stood at 0.526 ± 0.82.
As for AAAUAGCAAUAUUACGCGAA, the “self-splicing fitness (ln)” value (30 °C) was -1.42 ± 0.14 and the “self-splicing fitness (ln)” value (37 °C) was -1.59 ± 0.16.
As for GGUAAGCAAUAUUACGGGCC, the “self-splicing fitness (ln)” value (37 °C) is -0.705 ± 0.58.
UUUCAGCAAUAUUACGAGCU: the “self-splicing fitness (ln)” value (30 °C) was -2.31 ± 0.68.
Regarding AAGAAGCAAUAUUACGAUAA, the “self-splicing fitness (ln)” value is -1.11 ± 0.12 (30 °C) and -1.07 ± 0.15 (37 °C).
With UCAGAGCAAUAUUACGUUUA, the “self-splicing fitness (ln)” value reads like this: (30 °C) -3.02 ± 0.25; (37 °C) -2.6 ± 0.23.
For the sequence CAGGAGCAAUAUUACGGGGC, the “self-splicing fitness (ln)” value (37 °C) was -3.17 ± 0.74.
Consider CACCAGCAAUAUUACGGUCU, for which the “self-splicing fitness (ln)” value was -1.44 ± 0.044 (30 °C) and -1.04 ± 0.057 (37 °C).
As for AUUUAGCAAUAUUACGAGCC, the “self-splicing fitness (ln)” value (37 °C) was -2.72 ± 0.75.
As for UGGGAGCAAUAUUACGAUAU, the “self-splicing fitness (ln)” value runs as follows: (30 °C) -4.03 ± 0.53; (37 °C) -2.96 ± 0.53.
For GACUAGCAAUAUUACGCCAG, under “37 °C”, the “self-splicing fitness (ln)” value is -2.17 ± 0.65.
For the sequence GAGGAGCAAUAUUACGAGUC, the “self-splicing fitness (ln)” value by setting is: (30 °C) -1.93 ± 0.82; (37 °C) -1.47 ± 1.2.
On the same counts, the results for CCUCAGCAAUAUUACGCGCU are -2 ± 0.13 and -2.79 ± 0.25.
For UGAGAGCAAUAUUACGGUCA, the “self-splicing fitness (ln)” value by setting is: (30 °C) -0.647 ± 0.1; (37 °C) -0.589 ± 0.13.
In the case of CCUUAGCAAUAUUACGACUA, the “self-splicing fitness (ln)” value by setting is: (30 °C) -2.77 ± 0.51; (37 °C) -2.23 ± 0.5.
Regarding AUGCAGCAAUAUUACGCCUU, the “self-splicing fitness (ln)” value is -0.919 ± 0.072 (30 °C) and -0.304 ± 0.095 (37 °C).
AGCAAGCAAUAUUACGCCUC: the “self-splicing fitness (ln)” value (37 °C) worked out at 0.0117 ± 1.2.
